# Experimental data taken from the supplement of paper PMC11732987, “Enantioselective OTUD7B fragment discovery through chemoproteomics screening and high-throughput optimisation” (Communications Chemistry, 2025).
# The chains behind the UniProt entries cited, without tags or fusion partners. Where a name states a change or a piece, a line headed by the entry shows the natural chain unless it says otherwise. Residues count along the entry.
# UniProt Q96HA1, 604-629: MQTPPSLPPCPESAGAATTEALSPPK
# UniProt Q13427: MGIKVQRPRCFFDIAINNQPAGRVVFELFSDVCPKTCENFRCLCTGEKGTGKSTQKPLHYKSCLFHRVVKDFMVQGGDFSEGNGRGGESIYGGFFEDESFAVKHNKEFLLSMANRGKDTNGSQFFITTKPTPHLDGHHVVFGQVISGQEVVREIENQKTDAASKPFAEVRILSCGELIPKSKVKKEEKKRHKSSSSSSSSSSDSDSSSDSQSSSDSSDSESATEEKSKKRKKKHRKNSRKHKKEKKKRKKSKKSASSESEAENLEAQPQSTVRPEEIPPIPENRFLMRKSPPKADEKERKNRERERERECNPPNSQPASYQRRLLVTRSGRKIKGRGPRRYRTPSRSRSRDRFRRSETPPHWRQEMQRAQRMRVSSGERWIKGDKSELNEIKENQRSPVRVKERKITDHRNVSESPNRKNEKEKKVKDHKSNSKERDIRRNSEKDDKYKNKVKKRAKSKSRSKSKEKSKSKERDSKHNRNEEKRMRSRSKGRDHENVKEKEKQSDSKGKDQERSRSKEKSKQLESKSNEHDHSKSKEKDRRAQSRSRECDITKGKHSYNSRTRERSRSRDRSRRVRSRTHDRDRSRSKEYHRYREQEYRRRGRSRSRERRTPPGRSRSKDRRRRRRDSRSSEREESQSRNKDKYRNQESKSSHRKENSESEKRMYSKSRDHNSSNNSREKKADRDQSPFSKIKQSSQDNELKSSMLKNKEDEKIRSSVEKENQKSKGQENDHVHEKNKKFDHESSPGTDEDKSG
# UniProt Q05655: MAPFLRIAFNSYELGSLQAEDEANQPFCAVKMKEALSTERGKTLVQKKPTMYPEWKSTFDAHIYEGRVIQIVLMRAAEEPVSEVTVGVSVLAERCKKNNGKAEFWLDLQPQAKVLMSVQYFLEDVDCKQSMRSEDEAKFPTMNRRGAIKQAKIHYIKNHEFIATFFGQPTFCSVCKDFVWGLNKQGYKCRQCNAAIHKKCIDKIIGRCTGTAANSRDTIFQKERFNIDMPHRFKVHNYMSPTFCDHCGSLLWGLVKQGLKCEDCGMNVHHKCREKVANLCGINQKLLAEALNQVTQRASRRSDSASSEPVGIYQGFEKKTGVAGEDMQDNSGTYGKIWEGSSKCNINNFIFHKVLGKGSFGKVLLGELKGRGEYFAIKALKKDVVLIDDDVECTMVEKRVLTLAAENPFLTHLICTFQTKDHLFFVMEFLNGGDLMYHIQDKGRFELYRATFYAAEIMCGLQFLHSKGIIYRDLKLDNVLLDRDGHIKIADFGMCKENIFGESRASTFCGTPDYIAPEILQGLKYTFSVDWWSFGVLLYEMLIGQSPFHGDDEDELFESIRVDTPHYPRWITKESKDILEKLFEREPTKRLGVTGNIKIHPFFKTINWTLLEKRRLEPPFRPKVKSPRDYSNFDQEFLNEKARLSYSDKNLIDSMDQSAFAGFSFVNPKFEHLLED
# UniProt Q5H9R7, 195-220: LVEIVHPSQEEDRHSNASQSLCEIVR
# UniProt Q9BUI4, 160-185: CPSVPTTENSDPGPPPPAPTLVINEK
# UniProt Q13362, whole entry, looked up: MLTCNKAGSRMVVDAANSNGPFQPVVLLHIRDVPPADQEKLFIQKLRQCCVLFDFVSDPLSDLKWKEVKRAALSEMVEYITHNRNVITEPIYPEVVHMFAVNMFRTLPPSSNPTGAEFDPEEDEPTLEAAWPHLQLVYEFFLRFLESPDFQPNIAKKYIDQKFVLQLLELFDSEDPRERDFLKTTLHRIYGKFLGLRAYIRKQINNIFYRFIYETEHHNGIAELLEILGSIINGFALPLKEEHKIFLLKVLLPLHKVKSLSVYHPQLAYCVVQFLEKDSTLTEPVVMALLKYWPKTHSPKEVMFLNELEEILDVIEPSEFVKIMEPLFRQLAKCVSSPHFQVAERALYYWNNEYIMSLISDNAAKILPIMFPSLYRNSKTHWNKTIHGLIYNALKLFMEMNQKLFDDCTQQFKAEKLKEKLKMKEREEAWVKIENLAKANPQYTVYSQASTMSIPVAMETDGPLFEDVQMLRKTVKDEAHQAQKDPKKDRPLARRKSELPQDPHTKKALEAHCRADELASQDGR
# UniProt Q9NVU0: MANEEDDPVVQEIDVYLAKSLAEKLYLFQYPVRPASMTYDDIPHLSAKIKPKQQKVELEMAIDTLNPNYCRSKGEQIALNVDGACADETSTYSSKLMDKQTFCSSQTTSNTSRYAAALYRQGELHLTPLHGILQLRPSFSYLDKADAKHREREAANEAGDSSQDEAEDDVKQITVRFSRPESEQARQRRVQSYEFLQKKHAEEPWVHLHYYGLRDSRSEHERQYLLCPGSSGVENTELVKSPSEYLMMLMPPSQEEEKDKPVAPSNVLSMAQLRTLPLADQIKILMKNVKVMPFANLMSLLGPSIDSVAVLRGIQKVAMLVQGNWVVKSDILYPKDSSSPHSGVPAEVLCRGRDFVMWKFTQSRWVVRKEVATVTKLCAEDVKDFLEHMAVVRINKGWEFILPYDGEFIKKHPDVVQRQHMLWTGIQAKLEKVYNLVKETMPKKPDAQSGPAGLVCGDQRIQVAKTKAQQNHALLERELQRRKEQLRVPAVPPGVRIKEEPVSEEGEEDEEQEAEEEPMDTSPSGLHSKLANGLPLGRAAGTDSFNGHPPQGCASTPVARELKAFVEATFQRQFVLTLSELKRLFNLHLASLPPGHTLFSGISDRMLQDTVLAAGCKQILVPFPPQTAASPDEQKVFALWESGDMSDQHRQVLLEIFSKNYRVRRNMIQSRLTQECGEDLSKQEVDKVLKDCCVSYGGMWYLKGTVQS
# UniProt P23284: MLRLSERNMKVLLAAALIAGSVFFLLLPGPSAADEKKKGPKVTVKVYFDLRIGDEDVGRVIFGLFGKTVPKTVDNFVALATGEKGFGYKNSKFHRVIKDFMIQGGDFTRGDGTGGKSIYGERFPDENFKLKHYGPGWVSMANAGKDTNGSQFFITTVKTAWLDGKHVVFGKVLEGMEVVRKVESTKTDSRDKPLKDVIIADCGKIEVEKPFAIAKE
# UniProt P60510: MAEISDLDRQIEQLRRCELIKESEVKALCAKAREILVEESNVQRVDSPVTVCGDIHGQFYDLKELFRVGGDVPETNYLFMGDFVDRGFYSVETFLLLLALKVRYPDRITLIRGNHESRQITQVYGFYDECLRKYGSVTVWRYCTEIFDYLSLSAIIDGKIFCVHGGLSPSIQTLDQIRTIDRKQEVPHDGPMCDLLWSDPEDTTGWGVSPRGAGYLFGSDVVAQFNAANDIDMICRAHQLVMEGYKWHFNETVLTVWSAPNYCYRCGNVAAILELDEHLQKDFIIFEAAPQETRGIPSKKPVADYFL
# UniProt Q86W92, 916-939: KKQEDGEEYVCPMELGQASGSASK
# UniProt Q15172: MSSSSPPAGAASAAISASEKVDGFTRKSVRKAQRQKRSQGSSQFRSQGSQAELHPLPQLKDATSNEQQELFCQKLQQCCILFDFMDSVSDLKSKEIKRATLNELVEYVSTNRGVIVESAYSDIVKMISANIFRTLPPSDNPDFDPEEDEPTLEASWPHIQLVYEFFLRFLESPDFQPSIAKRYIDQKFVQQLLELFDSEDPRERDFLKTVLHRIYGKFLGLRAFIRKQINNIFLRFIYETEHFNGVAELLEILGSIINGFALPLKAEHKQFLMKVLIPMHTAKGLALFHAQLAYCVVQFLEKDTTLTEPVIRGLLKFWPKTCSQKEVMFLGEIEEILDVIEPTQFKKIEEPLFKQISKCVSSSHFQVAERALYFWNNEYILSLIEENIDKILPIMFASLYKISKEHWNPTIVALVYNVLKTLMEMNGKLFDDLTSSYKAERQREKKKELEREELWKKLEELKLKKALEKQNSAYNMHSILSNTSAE
# UniProt O14802: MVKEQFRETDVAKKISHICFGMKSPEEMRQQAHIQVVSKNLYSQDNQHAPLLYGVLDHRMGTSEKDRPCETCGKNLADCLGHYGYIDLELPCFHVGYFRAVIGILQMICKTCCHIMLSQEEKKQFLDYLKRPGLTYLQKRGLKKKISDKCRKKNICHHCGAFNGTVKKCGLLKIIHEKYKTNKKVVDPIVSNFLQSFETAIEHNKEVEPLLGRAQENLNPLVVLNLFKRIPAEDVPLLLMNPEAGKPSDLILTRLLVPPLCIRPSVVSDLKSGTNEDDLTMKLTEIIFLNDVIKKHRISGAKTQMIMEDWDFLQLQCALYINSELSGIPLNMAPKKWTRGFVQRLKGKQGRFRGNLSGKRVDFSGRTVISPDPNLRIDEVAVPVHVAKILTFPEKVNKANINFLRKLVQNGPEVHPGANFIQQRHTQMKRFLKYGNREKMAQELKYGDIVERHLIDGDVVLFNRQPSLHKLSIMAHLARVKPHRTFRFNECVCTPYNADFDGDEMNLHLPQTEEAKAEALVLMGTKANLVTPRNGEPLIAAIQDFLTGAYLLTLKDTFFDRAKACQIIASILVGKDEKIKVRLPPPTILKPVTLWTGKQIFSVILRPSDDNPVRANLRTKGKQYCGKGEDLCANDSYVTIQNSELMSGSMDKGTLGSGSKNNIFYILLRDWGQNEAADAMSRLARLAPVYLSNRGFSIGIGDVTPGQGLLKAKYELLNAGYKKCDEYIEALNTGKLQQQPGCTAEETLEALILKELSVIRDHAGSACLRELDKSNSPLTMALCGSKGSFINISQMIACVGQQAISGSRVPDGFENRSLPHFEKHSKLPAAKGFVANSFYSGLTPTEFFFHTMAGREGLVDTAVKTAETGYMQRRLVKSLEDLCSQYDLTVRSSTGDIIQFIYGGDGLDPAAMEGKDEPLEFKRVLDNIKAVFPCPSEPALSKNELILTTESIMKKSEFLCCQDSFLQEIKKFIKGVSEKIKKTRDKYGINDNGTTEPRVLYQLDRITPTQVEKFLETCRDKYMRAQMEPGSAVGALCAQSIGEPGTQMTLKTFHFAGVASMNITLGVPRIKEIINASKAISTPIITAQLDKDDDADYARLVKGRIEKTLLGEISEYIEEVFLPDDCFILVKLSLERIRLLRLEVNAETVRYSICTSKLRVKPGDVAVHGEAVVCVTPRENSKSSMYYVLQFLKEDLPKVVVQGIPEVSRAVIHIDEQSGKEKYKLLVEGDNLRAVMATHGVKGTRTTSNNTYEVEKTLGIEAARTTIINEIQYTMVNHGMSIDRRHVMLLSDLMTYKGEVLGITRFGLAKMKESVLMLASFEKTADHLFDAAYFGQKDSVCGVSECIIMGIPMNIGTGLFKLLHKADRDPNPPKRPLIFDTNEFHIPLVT
# UniProt P0CG38, 916-938: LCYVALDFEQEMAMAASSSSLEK
# UniProt O00743: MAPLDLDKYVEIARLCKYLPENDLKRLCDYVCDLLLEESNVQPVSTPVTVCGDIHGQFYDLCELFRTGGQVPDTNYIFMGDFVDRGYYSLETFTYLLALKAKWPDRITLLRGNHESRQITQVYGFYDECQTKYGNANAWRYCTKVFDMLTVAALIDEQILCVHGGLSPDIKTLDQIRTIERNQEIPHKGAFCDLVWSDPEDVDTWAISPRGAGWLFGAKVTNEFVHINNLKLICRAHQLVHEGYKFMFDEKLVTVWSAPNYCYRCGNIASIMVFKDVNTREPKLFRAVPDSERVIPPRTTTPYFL
# UniProt P31323, whole entry, looked up: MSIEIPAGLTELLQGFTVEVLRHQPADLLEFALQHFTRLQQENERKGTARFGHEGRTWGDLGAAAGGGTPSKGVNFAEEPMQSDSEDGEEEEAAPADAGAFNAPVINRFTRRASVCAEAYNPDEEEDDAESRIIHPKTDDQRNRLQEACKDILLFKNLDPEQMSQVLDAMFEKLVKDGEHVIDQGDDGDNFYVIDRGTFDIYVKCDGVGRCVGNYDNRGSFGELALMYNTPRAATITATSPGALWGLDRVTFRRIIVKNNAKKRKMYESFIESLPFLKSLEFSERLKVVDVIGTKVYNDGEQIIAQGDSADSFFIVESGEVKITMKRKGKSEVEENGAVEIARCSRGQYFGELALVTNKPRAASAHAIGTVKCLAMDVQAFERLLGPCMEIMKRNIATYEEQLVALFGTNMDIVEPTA
# UniProt Q86WR7: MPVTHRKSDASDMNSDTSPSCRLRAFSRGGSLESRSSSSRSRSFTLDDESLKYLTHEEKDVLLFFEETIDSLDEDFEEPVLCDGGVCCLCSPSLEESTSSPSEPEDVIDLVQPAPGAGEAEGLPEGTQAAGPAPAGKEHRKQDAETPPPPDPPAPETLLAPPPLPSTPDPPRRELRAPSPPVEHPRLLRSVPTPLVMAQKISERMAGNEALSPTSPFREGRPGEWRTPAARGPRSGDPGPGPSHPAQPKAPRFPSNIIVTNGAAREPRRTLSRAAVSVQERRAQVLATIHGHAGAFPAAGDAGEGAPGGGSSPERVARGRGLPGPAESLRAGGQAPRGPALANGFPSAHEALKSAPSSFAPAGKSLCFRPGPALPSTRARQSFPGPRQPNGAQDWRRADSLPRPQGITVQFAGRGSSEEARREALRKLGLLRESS
# UniProt Q969H6: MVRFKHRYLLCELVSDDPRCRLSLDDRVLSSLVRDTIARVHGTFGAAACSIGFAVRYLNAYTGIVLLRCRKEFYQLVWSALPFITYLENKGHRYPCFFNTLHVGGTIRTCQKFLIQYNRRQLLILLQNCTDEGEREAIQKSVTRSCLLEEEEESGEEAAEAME
# This is one part of the list. The data scatter; read single values as rough.
# Compound: ClCC(=O)N[C@@H]1CCCc2ccccc12
# Assay: log2 mean competition ratio of IA-DTB cysteine labelling (DMSO/compound) (log2 ratio); higher = stronger cysteine engagement by compound
# Settings: 50 µM; treatment time: 4 h; cell line lysate: HEK293T
# Protocol: (§1)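 IA-DTB competitive cysteine chemoproteomics in HEK293T RIPA lysate. Lysates were treated with compound 29 or 30 at 50 or 200 µM for 4 h, then IA-DTB (500 µM, 1 h), trypsin-digested, NeutrAvidin-enriched and analysed by diaPASEF. Competition ratio = intensity DMSO / intensity compound (n=4 treated, n=64 DMSO); binding: mean log2 CR ≥ 1 and p ≤ 0.05 plus QC filters. Target is the cysteine site.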
row,Target,log2 mean competition ratio
1,POM121 C613 (UniProt Q96HA1),-0.271
2,PPIG C549 (UniProt Q13427),-0.196
3,PRR14L C1224 (UniProt Q5THK1),0.0632
4,PRKCD C280 (UniProt Q05655),-0.165
5,PPP6R3 C216 (UniProt Q5H9R7),-0.171
6,POLR3C C160 (UniProt Q9BUI4),-0.333
7,PPP2R2A C398,0.0484
8,PPP2R5C C408 (UniProt Q13362),-0.00129
9,POLR3E C456 (UniProt Q9NVU0),-0.12
10,PRPF6 C901 (UniProt O94906),-0.107
11,PRKDC C2244 (UniProt P78527),0.213
12,PRMT9 C683 (UniProt Q6P2P2),0.038
13,POLR2M C82,0.34
14,PPIB C202 (UniProt P23284),-0.165
15,PPP2R1B C186,-0.353
16,PRMT9 C290 (UniProt Q6P2P2),-0.243
17,PPP6R3 C37 (UniProt Q5H9R7),-0.0485
18,POLR3B C687 (UniProt Q9NW08),0.108
19,PPP4C C52 (UniProt P60510),0.0448

row,Target,log2 mean competition ratio
1,PRMT5 C22 (UniProt O14744),-0.0828
2,PRKDC C795 (UniProt P78527),0.123
3,PPP2R1A C390 (UniProt P30153),-0.265
4,PRKG1 C158 (UniProt Q13976),-0.301
5,PPFIBP1 C926 (UniProt Q86W92),-0.212
6,PPP2R5A C359 (UniProt Q15172),0.347
7,POLR3A C724 (UniProt O14802),0.00708
8,POTEI C917 (UniProt P0CG38),0.199
9,PPP6C C129 (UniProt O00743),-0.0624
10,PRKCI C190 (UniProt P41743),-0.144
11,PPAT C496 (UniProt Q06203),0.0557
12,PRKAR2B C373 (UniProt P31323),0.286
13,PROSER2 C21 (UniProt Q86WR7),-0.0612
14,PRKG1 C43 (UniProt Q13976),0.142
15,PRKDC C2469 (UniProt P78527),0.131
16,PRPF4B C750 (UniProt Q13523),-0.0559
17,PRDM6 C168,-0.263
18,POP5 C146 (UniProt Q969H6),-0.377
19,PPP2R5A C72 (UniProt Q15172),-0.177

# Same assay, conditions: 200 µM; treatment time: 4 h; cell line lysate: HEK293T
row,Target,log2 mean competition ratio
1,POM121 C613 (UniProt Q96HA1),-0.156
2,PPIG C549 (UniProt Q13427),0.14
3,PRR14L C1224 (UniProt Q5THK1),-0.0216
4,PRKCD C280 (UniProt Q05655),-0.0557
5,PPP6R3 C216 (UniProt Q5H9R7),0.261
6,POLR3C C160 (UniProt Q9BUI4),-0.0981
7,PPP2R2A C398,-0.436
8,PPP2R5C C408 (UniProt Q13362),-0.0272
9,POLR3E C456 (UniProt Q9NVU0),0.0151
10,PRPF6 C901 (UniProt O94906),0.0585
11,PRKDC C2244 (UniProt P78527),-0.462
12,PRMT9 C683 (UniProt Q6P2P2),0.159
13,POLR2M C82,0.0979
14,PPIB C202 (UniProt P23284),0.0131
15,PPP2R1B C186,-0.278
16,PRMT9 C290 (UniProt Q6P2P2),-0.091
17,PPP6R3 C37 (UniProt Q5H9R7),-0.16
18,POLR3B C687 (UniProt Q9NW08),0.0468
19,PPP4C C52 (UniProt P60510),0.0434

row,Target,log2 mean competition ratio
1,PRMT5 C22 (UniProt O14744),-0.204
2,PRKDC C795 (UniProt P78527),0.0345
3,PPP2R1A C390 (UniProt P30153),0.488
4,PRKG1 C158 (UniProt Q13976),0.0251
5,PPFIBP1 C926 (UniProt Q86W92),-0.0686
6,PPP2R5A C359 (UniProt Q15172),0.332
7,POLR3A C724 (UniProt O14802),0.437
8,POTEI C917 (UniProt P0CG38),0.0335
9,PPP6C C129 (UniProt O00743),0.0208
10,PRKCI C190 (UniProt P41743),-0.0445
11,PPAT C496 (UniProt Q06203),0.0196
12,PRKAR2B C373 (UniProt P31323),0.495
13,PROSER2 C21 (UniProt Q86WR7),0.323
14,PRKG1 C43 (UniProt Q13976),-0.0613
15,PRKDC C2469 (UniProt P78527),0.201
16,PRPF4B C750 (UniProt Q13523),0.244
17,PRDM6 C168,-0.204
18,POP5 C146 (UniProt Q969H6),0.104
19,PPP2R5A C72 (UniProt Q15172),0.364

# Compound: ClCC(=O)N[C@H]1CCCc2ccccc12
# Assay: as above
# Settings: 50 µM; treatment time: 4 h; cell line lysate: HEK293T
# Protocol: as §1
row,Target,log2 mean competition ratio
1,POM121 C613 (UniProt Q96HA1),0.48
2,PPIG C549 (UniProt Q13427),-0.223
3,PRR14L C1224 (UniProt Q5THK1),0.00053
4,PRKCD C280 (UniProt Q05655),-0.3
5,PPP6R3 C216 (UniProt Q5H9R7),-0.544
6,POLR3C C160 (UniProt Q9BUI4),0.139
7,PPP2R2A C398,0.215
8,PPP2R5C C408 (UniProt Q13362),-0.256
9,POLR3E C456 (UniProt Q9NVU0),-0.356
10,PRPF6 C901 (UniProt O94906),-0.134
11,PRKDC C2244 (UniProt P78527),0.322
12,PRMT9 C683 (UniProt Q6P2P2),-0.0722
13,POLR2M C82,0.251
14,PPIB C202 (UniProt P23284),-0.366
15,PPP2R1B C186,-0.0639
16,PRMT9 C290 (UniProt Q6P2P2),-0.017
17,PPP6R3 C37 (UniProt Q5H9R7),0.104
18,POLR3B C687 (UniProt Q9NW08),0.146
19,PPP4C C52 (UniProt P60510),-0.147

row,Target,log2 mean competition ratio
1,PRMT5 C22 (UniProt O14744),-0.516
2,PRKDC C795 (UniProt P78527),-0.0609
3,PPP2R1A C390 (UniProt P30153),-0.438
4,PRKG1 C158 (UniProt Q13976),-0.135
5,PPFIBP1 C926 (UniProt Q86W92),-0.109
6,PPP2R5A C359 (UniProt Q15172),0.0669
7,POLR3A C724 (UniProt O14802),0.143
8,POTEI C917 (UniProt P0CG38),0.688
9,PPP6C C129 (UniProt O00743),-0.193
10,PRKCI C190 (UniProt P41743),0.134
11,PPAT C496 (UniProt Q06203),-0.19
12,PRKAR2B C373 (UniProt P31323),0.468
13,PROSER2 C21 (UniProt Q86WR7),0.0414
14,PRKG1 C43 (UniProt Q13976),-0.401
15,PRKDC C2469 (UniProt P78527),-0.251
16,PRPF4B C750 (UniProt Q13523),-0.539
17,PRDM6 C168,-0.157
18,POP5 C146 (UniProt Q969H6),0.0257
19,PPP2R5A C72 (UniProt Q15172),-0.0269
